Test results reported in publication PMC12130248.
Results are given in words; binding and its absence hold for the method and conditions named. In cells and extracts the contact can be indirect. Binding calls can cover weak binding; strength is not graded here. Tags and fused reporters may be left off the sequences shown.

Experiments:
[1] = molecular target: Rbm24a-GFP (full-length, overexpressed from pCS2-rbm24a-GFP mRNA) (zebrafish); experiment: co-IP; tagged proteins overexpressed in wild-type embryos from injected synthetic mRNAs (100 pg), about 50 embryos collected around 10 hpf; GFP-Trap magnetic agarose or anti-GFP antibody on protein G Dynabeads; 10 mM Tris-HCl pH 7.5, 150 mM NaCl, 0.5 mM EDTA, 0.5% NP-40; 4 °C overnight; western …
[2] = molecular target: Rbm24aΔRRM-GFP (disordered C-terminal region of Rbm24a) (zebrafish); experiment: as above

B1: Buc-myc (full-length, overexpressed from pCS2-buc-myc mRNA) (protein, UniProt H0WFA5 1-639)
chain: MEGINNNSQPMGVGQPHHPVNHTRPFFYVQPPSQPYFMYQWPMNPYGHYGFPGPALHFGRPYMAPYQFMQYPGYVIPHAPMQPIDYRRINPHYPSVASYDLRVRHHFQNAGMHRETACSEVQTDPSDSVNKLIDKIESLKACELGSDKGPNNVVSSTPDVVQGEKLTRLNEDSNLEVATKECKEDPVTRPTTYSDSAYDAESSQGRLDECVFSDVLPLDSSSVHEEEEEEEKDVNEEDEPQTVADEICSQNEMSASTTSNVFCSGVQSIADPTECHDLEKLGDEQKQDIPSADAAAVIEPLISLSEDFDLPYQILRLPCNKTTTGLSLEREIDPLVYFDSPSTLLPPQNYLSSIGSAYSYSYYPQVTQERQSVLSPSIDELSSRDEMFSTDVEDLEVVPGHVYVGGGRLAEASDMPVRSRKELPSVDKTCSVCQKTCACCGSTLQDEVGMCKMAEHSHPERDEMSDQDCDYDLEAEVRSNCESPRVSKRKCCSRHALPSCGHHCAKHRHRKLLCEGQESCDLREQARVHPKGECCEEYGALAKADKRIQKGALCRPCIEQQWREGVVSDQENWASCGAKPRSWRQVTGPQDQGRTPLRRSTCKSIHQQRPRSEYNDYDETEFTYCQRGRGSMKKRGSRY
binding [1]: binds
binding [2]: binds
